Test results from the supplement of paper PMC12823440, “Inhibitors supercharge kinase turnover through native proteolytic circuits” (Nature, 2025).
Where a name gives a salt, the structure may show the parent alone. The list shows a part of the results. The calls rarely recur for the same compound in another form.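 In K562 cells expressing nanoluciferase-fused kinases, luminescence was recorded at 4 h intervals between 2 and 18 h, normalized as percent of control with DMSO at 100% and a positive control at 0%. A significant (2 sigma) signal drop marks a time point as decreased. The authors' rule for a hit is not shown and takes in more than the number of time points.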

Sequences of proteins named here, by UniProt entry; tags and fusion partners are left off. A change or cut given only in a name is not applied to a line headed by its entry.
UniProt P29317, whole entry: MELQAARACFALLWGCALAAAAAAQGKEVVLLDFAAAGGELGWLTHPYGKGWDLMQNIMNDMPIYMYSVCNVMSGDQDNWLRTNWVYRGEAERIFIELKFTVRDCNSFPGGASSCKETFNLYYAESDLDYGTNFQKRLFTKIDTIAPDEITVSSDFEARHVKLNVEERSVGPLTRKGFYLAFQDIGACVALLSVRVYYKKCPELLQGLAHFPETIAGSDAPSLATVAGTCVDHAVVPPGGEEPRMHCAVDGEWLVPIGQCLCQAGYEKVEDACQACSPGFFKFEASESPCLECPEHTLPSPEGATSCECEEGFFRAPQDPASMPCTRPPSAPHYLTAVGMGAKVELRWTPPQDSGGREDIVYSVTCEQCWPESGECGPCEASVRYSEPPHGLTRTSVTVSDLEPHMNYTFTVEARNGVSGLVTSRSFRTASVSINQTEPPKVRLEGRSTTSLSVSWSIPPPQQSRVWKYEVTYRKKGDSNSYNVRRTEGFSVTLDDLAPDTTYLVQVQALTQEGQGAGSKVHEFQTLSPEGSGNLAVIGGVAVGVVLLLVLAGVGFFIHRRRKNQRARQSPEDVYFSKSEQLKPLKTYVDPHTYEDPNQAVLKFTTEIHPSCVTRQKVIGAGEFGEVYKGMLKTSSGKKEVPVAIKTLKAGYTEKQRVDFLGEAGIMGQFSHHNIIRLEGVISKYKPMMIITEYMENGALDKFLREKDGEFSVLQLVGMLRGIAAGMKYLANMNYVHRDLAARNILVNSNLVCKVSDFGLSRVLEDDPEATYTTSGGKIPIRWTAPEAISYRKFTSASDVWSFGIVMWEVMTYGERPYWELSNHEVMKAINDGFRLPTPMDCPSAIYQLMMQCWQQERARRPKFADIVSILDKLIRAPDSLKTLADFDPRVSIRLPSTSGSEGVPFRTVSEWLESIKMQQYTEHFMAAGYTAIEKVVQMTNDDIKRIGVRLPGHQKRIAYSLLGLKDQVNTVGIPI
UniProt P21860, whole entry: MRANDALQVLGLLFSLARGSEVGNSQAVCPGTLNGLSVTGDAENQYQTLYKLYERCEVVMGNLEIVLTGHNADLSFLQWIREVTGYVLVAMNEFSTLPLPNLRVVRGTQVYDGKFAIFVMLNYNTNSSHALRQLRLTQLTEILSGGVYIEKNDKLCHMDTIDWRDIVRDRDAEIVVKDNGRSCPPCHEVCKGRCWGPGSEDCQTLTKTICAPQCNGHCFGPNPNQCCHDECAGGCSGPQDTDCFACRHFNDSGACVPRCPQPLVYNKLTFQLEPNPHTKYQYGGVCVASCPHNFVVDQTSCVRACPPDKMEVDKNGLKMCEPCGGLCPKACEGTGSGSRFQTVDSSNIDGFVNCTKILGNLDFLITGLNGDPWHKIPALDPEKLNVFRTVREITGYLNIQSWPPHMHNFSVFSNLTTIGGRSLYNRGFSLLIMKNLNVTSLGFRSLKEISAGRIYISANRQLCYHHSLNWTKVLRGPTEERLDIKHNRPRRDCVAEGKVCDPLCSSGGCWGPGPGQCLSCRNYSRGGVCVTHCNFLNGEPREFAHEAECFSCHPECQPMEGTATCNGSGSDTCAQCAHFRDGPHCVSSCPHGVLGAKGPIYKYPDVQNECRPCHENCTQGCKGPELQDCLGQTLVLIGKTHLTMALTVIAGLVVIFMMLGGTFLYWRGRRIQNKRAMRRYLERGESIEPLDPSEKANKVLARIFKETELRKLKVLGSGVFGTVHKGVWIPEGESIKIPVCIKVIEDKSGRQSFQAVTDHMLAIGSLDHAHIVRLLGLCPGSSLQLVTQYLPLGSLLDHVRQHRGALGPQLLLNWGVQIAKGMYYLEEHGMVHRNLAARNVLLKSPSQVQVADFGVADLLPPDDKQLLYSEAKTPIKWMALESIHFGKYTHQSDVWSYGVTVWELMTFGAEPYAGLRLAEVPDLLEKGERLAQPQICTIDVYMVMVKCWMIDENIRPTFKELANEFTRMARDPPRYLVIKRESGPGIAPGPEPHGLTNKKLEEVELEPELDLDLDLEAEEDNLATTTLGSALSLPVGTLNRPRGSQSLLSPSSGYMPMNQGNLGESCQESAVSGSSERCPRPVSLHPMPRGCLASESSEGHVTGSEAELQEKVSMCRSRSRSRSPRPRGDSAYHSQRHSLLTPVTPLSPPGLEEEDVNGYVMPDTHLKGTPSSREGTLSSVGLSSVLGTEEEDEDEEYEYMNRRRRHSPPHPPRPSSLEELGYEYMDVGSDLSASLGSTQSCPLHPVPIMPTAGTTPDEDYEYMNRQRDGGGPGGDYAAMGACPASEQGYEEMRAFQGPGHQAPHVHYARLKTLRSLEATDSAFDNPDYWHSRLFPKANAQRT
UniProt O75460: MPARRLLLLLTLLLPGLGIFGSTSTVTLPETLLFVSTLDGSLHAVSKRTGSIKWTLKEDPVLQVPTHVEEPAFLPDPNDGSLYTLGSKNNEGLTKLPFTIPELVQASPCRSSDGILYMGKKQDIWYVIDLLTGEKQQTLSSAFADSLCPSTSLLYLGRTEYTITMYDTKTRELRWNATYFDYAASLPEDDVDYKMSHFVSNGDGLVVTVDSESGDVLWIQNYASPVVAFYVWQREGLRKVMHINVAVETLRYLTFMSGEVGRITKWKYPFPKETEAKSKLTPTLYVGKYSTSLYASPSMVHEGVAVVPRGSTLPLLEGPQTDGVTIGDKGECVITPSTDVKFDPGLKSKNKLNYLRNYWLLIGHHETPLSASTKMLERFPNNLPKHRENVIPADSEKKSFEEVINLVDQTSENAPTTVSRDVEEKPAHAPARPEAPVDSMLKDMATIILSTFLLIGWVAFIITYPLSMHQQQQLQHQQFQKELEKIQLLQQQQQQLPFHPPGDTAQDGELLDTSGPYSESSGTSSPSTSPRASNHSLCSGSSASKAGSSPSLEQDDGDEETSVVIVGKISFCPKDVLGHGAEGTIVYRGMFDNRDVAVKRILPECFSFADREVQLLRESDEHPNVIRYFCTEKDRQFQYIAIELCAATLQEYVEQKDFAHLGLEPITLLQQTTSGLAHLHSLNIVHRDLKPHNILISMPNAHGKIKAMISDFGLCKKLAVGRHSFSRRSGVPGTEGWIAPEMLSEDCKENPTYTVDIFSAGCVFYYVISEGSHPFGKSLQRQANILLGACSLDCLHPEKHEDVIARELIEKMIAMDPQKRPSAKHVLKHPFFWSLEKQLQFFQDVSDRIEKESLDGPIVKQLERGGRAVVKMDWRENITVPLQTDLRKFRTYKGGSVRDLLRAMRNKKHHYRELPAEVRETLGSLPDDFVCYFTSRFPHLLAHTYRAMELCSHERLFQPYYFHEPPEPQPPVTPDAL
UniProt P11362, whole entry, looked up: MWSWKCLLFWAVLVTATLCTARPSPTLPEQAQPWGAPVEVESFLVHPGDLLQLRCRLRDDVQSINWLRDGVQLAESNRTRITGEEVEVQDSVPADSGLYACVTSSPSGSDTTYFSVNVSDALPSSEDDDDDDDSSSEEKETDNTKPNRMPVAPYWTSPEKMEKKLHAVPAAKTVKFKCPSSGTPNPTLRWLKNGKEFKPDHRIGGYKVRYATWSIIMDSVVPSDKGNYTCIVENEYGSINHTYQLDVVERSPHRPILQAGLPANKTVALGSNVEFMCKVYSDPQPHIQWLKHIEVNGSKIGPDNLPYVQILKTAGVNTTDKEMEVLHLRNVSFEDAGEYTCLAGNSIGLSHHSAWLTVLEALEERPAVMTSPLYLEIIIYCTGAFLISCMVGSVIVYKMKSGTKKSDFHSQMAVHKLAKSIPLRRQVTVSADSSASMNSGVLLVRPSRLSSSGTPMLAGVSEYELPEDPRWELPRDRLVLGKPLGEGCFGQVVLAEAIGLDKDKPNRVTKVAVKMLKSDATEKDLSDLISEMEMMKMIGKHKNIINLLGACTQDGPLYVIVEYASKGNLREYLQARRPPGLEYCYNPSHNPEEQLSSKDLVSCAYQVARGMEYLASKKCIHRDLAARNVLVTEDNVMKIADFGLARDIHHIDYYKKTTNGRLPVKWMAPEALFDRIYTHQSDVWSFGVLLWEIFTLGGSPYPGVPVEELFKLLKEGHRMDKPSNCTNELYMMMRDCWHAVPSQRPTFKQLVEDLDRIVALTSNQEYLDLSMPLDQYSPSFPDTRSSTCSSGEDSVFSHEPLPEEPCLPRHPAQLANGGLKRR
UniProt P21802, whole entry, looked up: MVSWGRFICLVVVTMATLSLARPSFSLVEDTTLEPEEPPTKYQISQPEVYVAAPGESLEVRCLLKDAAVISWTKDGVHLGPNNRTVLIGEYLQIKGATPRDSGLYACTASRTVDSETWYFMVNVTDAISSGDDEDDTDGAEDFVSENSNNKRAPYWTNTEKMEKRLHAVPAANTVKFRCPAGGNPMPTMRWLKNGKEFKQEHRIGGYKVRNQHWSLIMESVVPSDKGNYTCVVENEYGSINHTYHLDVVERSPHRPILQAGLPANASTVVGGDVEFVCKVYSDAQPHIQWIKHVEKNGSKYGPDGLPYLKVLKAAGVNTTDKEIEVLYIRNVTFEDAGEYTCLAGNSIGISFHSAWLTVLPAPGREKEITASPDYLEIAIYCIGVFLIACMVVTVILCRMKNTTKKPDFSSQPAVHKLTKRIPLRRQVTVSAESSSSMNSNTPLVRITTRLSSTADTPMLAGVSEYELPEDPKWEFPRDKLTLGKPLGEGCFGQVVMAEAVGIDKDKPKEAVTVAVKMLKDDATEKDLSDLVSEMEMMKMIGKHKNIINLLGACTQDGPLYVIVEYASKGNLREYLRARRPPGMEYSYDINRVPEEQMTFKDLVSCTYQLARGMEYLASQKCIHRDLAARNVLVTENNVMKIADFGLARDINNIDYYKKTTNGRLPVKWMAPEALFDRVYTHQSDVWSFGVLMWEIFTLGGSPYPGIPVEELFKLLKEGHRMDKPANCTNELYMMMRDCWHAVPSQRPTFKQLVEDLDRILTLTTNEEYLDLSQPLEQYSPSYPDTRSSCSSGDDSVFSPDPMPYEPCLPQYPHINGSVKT
UniProt P22607, whole entry, looked up: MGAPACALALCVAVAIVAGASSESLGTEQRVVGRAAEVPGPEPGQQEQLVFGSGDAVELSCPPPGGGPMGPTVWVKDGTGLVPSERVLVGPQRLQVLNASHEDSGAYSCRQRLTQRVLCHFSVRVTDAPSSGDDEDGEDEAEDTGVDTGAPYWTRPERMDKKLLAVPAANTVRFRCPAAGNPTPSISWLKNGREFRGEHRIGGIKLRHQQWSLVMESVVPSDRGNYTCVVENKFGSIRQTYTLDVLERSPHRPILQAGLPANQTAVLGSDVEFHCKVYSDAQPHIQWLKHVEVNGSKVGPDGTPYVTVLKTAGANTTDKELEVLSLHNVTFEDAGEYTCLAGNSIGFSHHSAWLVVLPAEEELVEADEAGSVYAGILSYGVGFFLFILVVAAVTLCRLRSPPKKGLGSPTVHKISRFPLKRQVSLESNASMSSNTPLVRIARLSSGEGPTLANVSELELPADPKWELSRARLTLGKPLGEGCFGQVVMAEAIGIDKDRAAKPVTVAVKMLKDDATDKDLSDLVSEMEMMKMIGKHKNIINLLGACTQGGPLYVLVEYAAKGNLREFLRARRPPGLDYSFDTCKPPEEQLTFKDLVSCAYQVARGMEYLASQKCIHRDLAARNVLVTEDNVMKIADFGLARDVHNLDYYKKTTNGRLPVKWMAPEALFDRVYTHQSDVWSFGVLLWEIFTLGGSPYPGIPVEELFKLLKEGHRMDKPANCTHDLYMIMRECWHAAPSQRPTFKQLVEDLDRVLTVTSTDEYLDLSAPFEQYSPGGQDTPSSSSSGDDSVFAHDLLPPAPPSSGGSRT

Experiments:
Experiment in all cases: number of time points (of 5) at which kinase-Nluc abundance scored as decreased, DMSO-normalised (count); higher = more persistent destabilization
Conditions in all cases: K562; 2-18 h
EGFR_L861Q = EGFR_L861Q (UniProt P00533)
EGFR_T790M = EGFR_T790M (UniProt P00533)
EPHA2 = EPHA2 (UniProt P29317)
ERBB3 = ERBB3 (UniProt P21860)
[1] = molecular target: ERBB4_R711C (clone: ERBB4_mut) (UniProt Q15303)
ERN1 = ERN1 (UniProt O75460)
FGFR1 = FGFR1 (UniProt P11362)
FGFR2 = FGFR2 (UniProt P21802)
FGFR3 = FGFR3 (UniProt P22607)
FGR = FGR (UniProt P09769)

Measured: number of time points

CC(=O)NCCc1c[nH]c2ccc(O)cc12 [N-Acetyl-5-hydroxytryptamine] (10 µM)
0: all assays above

Cc1cccc(-c2[nH]ncc2-c2ccc3ncccc3n2)n1 (10 µM)
0: all assays above

COC(=O)[C@@]1(C)CC[C@]2(C(=O)O)CC[C@]3(C)C(=CC[C@@H]4[C@@]5(C)C[C@H](O)[C@H](O[C@@H]6OC[C@@H](O[C@@H]7O[C@H](CO)[C@@H](O)[C@H](O)[C@H]7O)[C@H](O)[C@H]6O)[C@@](C)(CO)[C@@H]5CC[C@]43C)[C@@H]2C1 [Esculentoside A] (10 µM)
0: all assays above

COc1ccc(CNc2nc(N(CCO)CCO)nc3c2ncn3C(C)C)cc1 (2.5 µM)
2: FGFR2
0: all other assays above

N#C/C(=C\c1ccc2oc(=O)[nH]c2c1)C(=O)c1ccc(O)c(O)c1 (10 µM)
0: all assays above

Cc1ccc(-c2ccc3c(ccc4sc5c(c43)NC[C@@H](C)NC5=O)n2)cn1 (10 µM)
0: all assays above

Cn1cc(-c2ccc(F)c(C(F)(F)F)c2)nc1C1CCN(c2ncnc3[nH]ncc23)CC1 (10 µM)
0: all assays above

CC(C)n1cnc2c(Nc3cccc(Cl)c3)nc(NCCO)nc21 (10 µM)
0: all assays above

C[C@@H]1O[C@@H](OC[C@H]2O[C@@H](Oc3cc(O)c4c(c3)O[C@H](c3ccc(O)cc3)CC4=O)[C@H](O)[C@@H](O)[C@@H]2O)[C@H](O)[C@H](O)[C@H]1O [Narirutin] (10 µM)
0: all assays above

COc1ccccc1/C=C1\C(=O)Nc2ccccc21 (10 µM)
0: all assays above

Nc1[nH]c(=O)nc2c1ncn2[C@@H]1O[C@H](CO)[C@@H](O)[C@H]1O [Crotonoside] (10 µM)
0: all assays above

C[C@H]1Cc2ccccc2N1C(=O)Cc1nc(N2CCOCC2)cc(=O)[nH]1 (2.5 µM)
0: all assays above

COc1cc(-c2cc(-c3cc(OC)c(OC)c(OC)c3)cc(C(F)P(=O)(OCOC(=O)C(C)(C)C)OCOC(=O)C(C)(C)C)c2)cc(OC)c1OC (stereo not given) [Stafia-1-dipivaloyloxymethyl ester] (2.5 µM)
0: all assays above

CNC(=O)c1cc(Oc2ccc3nc(N[C@@H]4CCCC[C@H]4O)sc3c2)ccn1 (10 µM)
0: all assays above

CSc1ccc(CN2CCCC(Nc3ccc4[nH]ncc4c3)C2)cc1 (stereo not given) [Rho-Kinase-IN-1] (10 µM)
0: all assays above

O=C(NOCCO)c1ccc2cncn2c1Nc1ccc(I)cc1F (10 µM)
2: EGFR_L861Q | ERBB3 | FGFR2
1: [1]
0: all other assays above

O=c1[nH]ccc2cc(OC3CCNCC3)ccc12 (10 µM)
0: all assays above

O=S(=O)(c1cccc2cnccc12)N1CCNCC1 (10 µM)
0: all assays above

COc1cc2ncnc(Nc3ccc(NC(=O)c4ccccc4)cc3)c2cc1OC [Aurora kinase inhibitor-2] (2.5 µM)
0: all assays above

O=C(O)c1ccc(-c2c[nH]c3ncc(-c4ccccc4)cc23)cc1C1CCCC1 (2.5 µM)
0: all assays above

3 entries out of the list, ordered by count of non-hydrogen atoms, rising.
Cc1ccc(-c2ccc3c(ccc4sc5c(c43)NC[C@@H](C)NC5=O)n2)cn1 (10 µM)
0: all assays above

COc1ccc(CNc2nc(N(CCO)CCO)nc3c2ncn3C(C)C)cc1 (2.5 µM)
2: FGFR2
0: all other assays above

C[C@@H]1O[C@@H](OC[C@H]2O[C@@H](Oc3cc(O)c4c(c3)O[C@H](c3ccc(O)cc3)CC4=O)[C@H](O)[C@@H](O)[C@@H]2O)[C@H](O)[C@H](O)[C@H]1O [Narirutin] (10 µM)
0: all assays above

Continuation.

O=C(CO)N1CCC(c2n[nH]c(-c3ccc(Cl)cc3)c2-c2ccncn2)CC1 (10 µM)
0: all assays above

Cc1cc2ncc(-c3ccccc3)nc2cc1C (10 µM)
0: all assays above

CC(C)c1cnn2c(NCc3ccccc3-n3cccn3)nc(OC3CCCNC3)nc12 (stereo not given) (2.5 µM)
2: [1]
1: EGFR_L861Q | EPHA2 | ERN1
0: all other assays above

CCOC(=O)c1c2c3c(cccc3[nH]c1=O)C(=O)c1ccccc1-2 (10 µM)
0: all assays above

CN(C)c1nc2c(Br)c(Br)c(Br)c(Br)c2n1CC(=O)O (10 µM)
0: all assays above

Nc1nc2cc(-c3ccc4ncc(C(=O)N5CCOCC5)n4c3)ccc2o1 [Serabelisib] (10 µM)
0: all assays above

COC1(C(=O)N[C@@H](C)c2ccc(-n3cc(F)cn3)nc2)CCC(c2nc(C)cc(Nc3cc(C)[nH]n3)n2)CC1 (stereo partly drawn) [trans-Pralsetinib] (2.5 µM)
0: all assays above

O=c1ccc2ccc(O)c(O)c2o1 [Daphnetin] (10 µM)
0: all assays above

COc1ccc(CN2C3CC2CN(c2ccc(-c4cc(OCC(C)(C)O)cn5ncc(C#N)c45)cn2)C3)cn1 [Selpercatinib] (10 µM)
0: all assays above

CCCCOc1ccc(CC/C=C2\SC(=O)N(CCN)C2=O)cc1 [K145 (hydrochloride)] (2.5 µM)
0: all assays above

COc1cc(N2CCC(O)CC2)ccc1Nc1cc(Nc2ccccc2S(=O)(=O)C(C)C)c2cc[nH]c2n1 (10 µM)
0: all assays above

CN1CC[C@H](c2c(O)cc(O)c3c(=O)cc(-c4ccc(C(F)(F)F)cc4Cl)oc23)[C@H]1CO [(2S,3R)-Voruciclib (hydrochloride)] (2.5 µM)
0: all assays above

COc1ccc2c(Oc3ccc(NC(=O)c4c(C)n(CC(C)(C)O)n(-c5ccccc5)c4=O)cc3F)ccnc2c1 (2.5 µM)
2: [1]
3: ERBB3
1: EGFR_L861Q | FGFR2
0: all other assays above

O=C(O)CCc1ccc(NCc2cccc(Oc3ccccc3)c2)cc1 (10 µM)
0: all assays above

CC(C)c1cc(/C=C(\C#N)C(N)=O)cc(C(C)C)c1O (10 µM)
0: all assays above

Cc1ccc(-c2ncn(-c3ccc(Nc4nccc(-c5cccc(N6CCOCC6)c5)n4)cc3)n2)cn1 (10 µM)
0: all assays above

CC1=C(CC(=O)O)c2cc(F)ccc2/C1=C\c1ccc(C(C)C)cc1 (10 µM)
0: all assays above

COc1ccc(CCNc2ncc3c(=O)n(-c4cccc(F)c4)c(=O)[nH]c3n2)cc1OC (2 µM)
0: all assays above
